Among the data in article PMC6016865 are binding values, retold here.

Protein sequences, listed by entry. Tags and fused reporters are not part of them. Lines headed by an entry give the natural chain unless they say otherwise; changes in a name come on top. Residues count along the entry.
UniProt P09429, residues 1-185: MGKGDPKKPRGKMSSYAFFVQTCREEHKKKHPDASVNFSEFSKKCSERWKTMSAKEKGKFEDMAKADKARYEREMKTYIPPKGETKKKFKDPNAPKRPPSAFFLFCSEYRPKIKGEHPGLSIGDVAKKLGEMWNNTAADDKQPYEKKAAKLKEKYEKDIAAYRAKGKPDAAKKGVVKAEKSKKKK
UniProt P20333, residues 23-257: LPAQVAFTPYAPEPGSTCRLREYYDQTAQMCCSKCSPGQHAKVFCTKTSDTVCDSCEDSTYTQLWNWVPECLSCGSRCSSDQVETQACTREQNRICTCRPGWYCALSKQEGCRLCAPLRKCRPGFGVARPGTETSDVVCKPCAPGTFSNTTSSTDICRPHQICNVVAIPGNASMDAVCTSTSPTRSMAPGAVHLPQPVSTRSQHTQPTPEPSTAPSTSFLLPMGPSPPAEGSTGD

The target in the test is Δ30 HMGB1 (lacking the C-terminal tail; residues 1–185) (human) (UniProt P09429). In words: ELISA; plates coated with 40 nmol HMGB1 protein in PBS pH 7.2, 2 h 37 °C; blocked with 1% BSA; 0.2–1.25 μg/mL TLR2-Fc (or TNFR-Fc) in 1% BSA in PBS pH 7.2, 2 h; detected with anti-human IgG HRP and TMB; some samples treated with H2O2 or DTT; both purified. On the technique in general: In an ELISA, binding on a coated surface is turned into a signal by an enzyme label.

Results are given in words; binding and its absence hold for the method and conditions named.

For “Etanercept (TNFR-Fc; Pfizer) (from UniProt P20333 23-257) (Fc fusion)”, the binding result is on record as “no binding (tested: 0.2–1.25 μg/mL Etanercept)”.
